From paper PMC10266688 (PLOS ONE, 2023)
Several values for one entry are separate records, joined by “and”; a condition that tells them apart may be missing. Equal entries are not always repeated. Further values from the same series stand in other lists.

Assay: Single administration dose escalation study (MTD, body weight, clinical observations), female CD1 mice
Assay type: in vivo
Conditions: PO 200 mg/kg single dose

Compound: N#Cc1ccc(/C=C2/C(=O)/C(=C/c3ccc(C#N)cc3)C23CCNCC3)cc1 [Up284]
- Body weight (day 0, individual mice): 24.2 g and 26.3 g and 23.6 g
- Body weight (day 1, individual mice): 24.9 g and 25.8 g and 24.0 g
- Body weight (day 2, individual mice): 25.7 g and 25.5 g and 24.3 g
- Body weight (day 3, individual mice): 25.6 g and 25.1 g and 24.5 g
- Body weight (day 4, individual mice): 25.1 g and 26.3 g and 24.8 g
- Body weight (day 5, individual mice): 25.1 g and 26.2 g and 24.7 g
- Body weight (day 6, individual mice): 25.8 g and 25.7 g and 25.4 g
- Body weight (day 7, individual mice): 25.0 g
